Taken from: PubChem BioAssay AID1508588 (Peter MacCallum Cancer Centre, 2020)
Here is an unselected part of about 18,000 reagents. In the full data, 790 (4.4%) got an active call. 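Calls rest on a combination of fold-change classes in drug and vehicle arms, not all shown here.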 Entries without a mark were called inactive. The numbers tell different reagents against one gene apart. No sequences are given here.

Screen: 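Knock-downs boosting vemurafenib effects on melanoma cell growth or lactate release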 (primary screen)
Cells: human WM266.4 melanoma cells (BRAF V600 mutant)
Reagent: siRNA pool against human genes, 40 nM
Duration: 96 h from transfection to read-out
Conditions: vemurafenib 300 nM (about IC25), added 48 h after transfection, for 48 h; comparison arm got DMSO vehicle only
Measurement: 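Ratios to non-targeting siRNA for cell gain, counted as DAPI nuclei after minus before drug and averaged over two replicates, and for absorbance-read medium lactate per cell; both binned into fold-change classes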
Scale: cell gain with vemurafenib: higher = more cell gain than with non-targeting siRNA; lactate per cell with vemurafenib: higher = more lactate made per cell
Rule for the call: 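Enhancement is called by pairing each knock-down's vehicle-arm and drug-arm fold-change classes for viability or glycolysis; which class combinations qualify is not given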
Calls: active = enhances vemurafenib effect; inactive = no enhancement seen

RPL36A: cell gain with vemurafenib = 0.38; lactate per cell with vemurafenib = 1.07
SPANXA1: cell gain with vemurafenib = 0.04; lactate per cell with vemurafenib = 1.44
HS3ST1: cell gain with vemurafenib = 0.56; lactate per cell with vemurafenib = 1.67
ITIH5: cell gain with vemurafenib = 0.87; lactate per cell with vemurafenib = 0.48
MED28: cell gain with vemurafenib = 0.47; lactate per cell with vemurafenib = 1.08
C8orf33: cell gain with vemurafenib = 0.25; lactate per cell with vemurafenib = 1.01
LCOR #1: cell gain with vemurafenib = 0.66; lactate per cell with vemurafenib = 1.65
LCOR #2: cell gain with vemurafenib = 0.58; lactate per cell with vemurafenib = 0.88
TGIF1: cell gain with vemurafenib = 0.86; lactate per cell with vemurafenib = 0.9
BPNT1: cell gain with vemurafenib = 0.82; lactate per cell with vemurafenib = 0.47
MCM10: cell gain with vemurafenib = 0.01; lactate per cell with vemurafenib = 1.56
ELOC: cell gain with vemurafenib = 0.44; lactate per cell with vemurafenib = 1.52
IKZF5: cell gain with vemurafenib = 0.84; lactate per cell with vemurafenib = 0.56
TNKS: cell gain with vemurafenib = 0.85; lactate per cell with vemurafenib = 0.42
CFAP126: cell gain with vemurafenib = 0.18; lactate per cell with vemurafenib = 1.31

Continued (4 carried over from the part before).
ELOC: cell gain with vemurafenib = 0.44; lactate per cell with vemurafenib = 1.52
IKZF5: cell gain with vemurafenib = 0.84; lactate per cell with vemurafenib = 0.56
TNKS: cell gain with vemurafenib = 0.85; lactate per cell with vemurafenib = 0.42
CFAP126: cell gain with vemurafenib = 0.18; lactate per cell with vemurafenib = 1.31
BCAM: cell gain with vemurafenib = 0.46; lactate per cell with vemurafenib = 0.77
TEX101: cell gain with vemurafenib = 0.74; lactate per cell with vemurafenib = 1.29
KLHDC7B: cell gain with vemurafenib = 0.63; lactate per cell with vemurafenib = 0.54
TRMT10C: cell gain with vemurafenib = 1.06; lactate per cell with vemurafenib = 0.8
DPPA2: cell gain with vemurafenib = 1.18; lactate per cell with vemurafenib = 0.46
ABLIM2: cell gain with vemurafenib = 0.17; lactate per cell with vemurafenib = 2.45
SIN3A: cell gain with vemurafenib = 0.48; lactate per cell with vemurafenib = 1.73
ZNF560: cell gain with vemurafenib = 0.83; lactate per cell with vemurafenib = 0.87
PRR14L: cell gain with vemurafenib = 0.52; lactate per cell with vemurafenib = 0.62
PLXDC1: cell gain with vemurafenib = 0.79; lactate per cell with vemurafenib = 0.22
ARMC9: cell gain with vemurafenib = 0.81; lactate per cell with vemurafenib = 1.25
MSC: cell gain with vemurafenib = 0.46; lactate per cell with vemurafenib = 0.15
CMTR2: cell gain with vemurafenib = 0.54; lactate per cell with vemurafenib = 0.42
PBRM1: cell gain with vemurafenib = 0.71; lactate per cell with vemurafenib = 1.21
ASPHD2: cell gain with vemurafenib = 0.59; lactate per cell with vemurafenib = 0.84
PLXNC1: cell gain with vemurafenib = 0.29; lactate per cell with vemurafenib = 1.77
IPO7: cell gain with vemurafenib = 0.86; lactate per cell with vemurafenib = 0.66
MICU1: cell gain with vemurafenib = 0.11; lactate per cell with vemurafenib = 1.03
PIWIL1: cell gain with vemurafenib = 0.71; lactate per cell with vemurafenib = 0.66
ZBTB7A: cell gain with vemurafenib = 1.04; lactate per cell with vemurafenib = 0.54
GCG: cell gain with vemurafenib = 0.69; lactate per cell with vemurafenib = 1.48
OXER1: cell gain with vemurafenib = 0.89; lactate per cell with vemurafenib = 0.64
PPP6C: cell gain with vemurafenib = 1.3; lactate per cell with vemurafenib = 1.85
HVCN1: cell gain with vemurafenib = 0.48; lactate per cell with vemurafenib = 0.96
TNFRSF1A: cell gain with vemurafenib = 0.71; lactate per cell with vemurafenib = 0.74
